Reference: PMC10776994, “The SDS22:PP1:I3 complex: SDS22 binding to PP1 loosens the active site metal to prime metal exchange” (The Journal of Biological Chemistry, 2023)
No constants are given. Whether binding was seen depends on the method and setting. Some binding calls cover weakened binding; strength is not graded here.

Amino acid sequences for entries named in this document (tags omitted). Residues count along the entry.
UniProt P62136, residues 7-300: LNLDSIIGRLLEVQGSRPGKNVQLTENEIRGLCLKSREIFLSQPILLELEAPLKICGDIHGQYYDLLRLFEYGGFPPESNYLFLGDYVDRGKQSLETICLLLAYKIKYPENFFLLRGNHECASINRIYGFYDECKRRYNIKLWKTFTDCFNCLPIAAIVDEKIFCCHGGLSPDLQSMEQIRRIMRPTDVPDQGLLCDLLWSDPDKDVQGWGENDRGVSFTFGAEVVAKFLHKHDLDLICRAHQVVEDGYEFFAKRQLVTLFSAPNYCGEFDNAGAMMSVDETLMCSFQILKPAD

Molecular target: PP1α_(7-300) (UniProt P62136)
Assay: crystal structure; SDS22_(56-360):PP1α_(7-300):I3_(27-68) (SPI) co-expressed in Expi293F; 3.2 Å, molecular replacement with PDB 6OBN; both purified

- binding: binds
B1: SDS22_(56-360) (domain or fragment, UniProt Q15435 56-360)
chain: EEDPEEEHELPVDMETINLDRDAEDVDLNHYRIGKIEGFEVLKKVKTLCLRQNLIKCIENLEELQSLRELDLYDNQIKKIENLEALTELEILDISFNLLRNIEGVDKLTRLKKLFLVNNKISKIENLSNLHQLQMLELGSNRIRAIENIDTLTNLESLFLGKNKITKLQNLDALTNLTVLSMQSNRLTKIEGLQNLVNLRELYLSHNGIEVIEGLENNNKLTMLDIASNRIKKIENISHLTELQEFWMNDNLLESWSDLDELKGARSLETVYLERNPLQKDPQYRRKVMLALPSVRQIDATFVRF
